The list is a part of this screen's results and no random one: it is rich in T/C values a quarter to a half above the control, in often repeated tests (any T/C) and in doses without a T/C. Other doses and runs of a compound stand elsewhere. T/C: endpoint of the treated group in % of that of the vehicle group. Some entries give survivors of the animals treated and no T/C: the source holds a T/C of zero for them, seemingly a mark for toxic or unscored doses. Some doses without a T/C left all or most animals alive at the check, yet need not have been tolerated: the source hardly ever lists a survival T/C far under the control, and the zero likely stands for such cases as well. Counts of survivors are from the toxicity check (mostly the fifth day) where no day follows; animals may have died later. Schedule codes are those of the source, taken here to give the interval after Q, in days (D) or hours (H), and the number of doses after X. For survival time, the PubChem record calls one and a half times the control and up active, and a quarter to a half above the control has no call in these data; cut-offs in other NCI protocols can differ.
Tested on: CD2F1 mice, L1210 leukemia ip, survival T/C
Test: NCI In Vivo Anticancer Drug Screen. Data for tumor model L1210 Leukemia (intraperitoneal) in CD2F1 (CDF1) mice
Settings: higher T/C = longer survival
In short: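 Transplantable tumor in mice; compound-treated vs vehicle-treated groups. Read-out = treated/control ratio of the measured endpoint.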

[1] = T/C endpoint: median survival time, dose: 50.0 mg/kg/injection, schedule: Q01DX009 (ip), vehicle: saline

In the case of `O=S(=O)(O)C1CCC[N-]C1.O=S(=O)(O)C1CCC[N-]C1.[Cl][Pt+2]([Cl])([Cl])[Cl]` (configuration not stated), the survivor count (T/C endpoint: mean survival time, dose: 200.0 mg/kg/injection, schedule: Q01DX009 (ip), vehicle: water) is reported as 0 of 6.

`CC1=C2CCCCC2COC1=O` (configuration not stated) was tested, and the survivor count (T/C endpoint: mean survival time, dose: 75.0 mg/kg/injection, schedule: Q01DX001 (ip), vehicle: saline) was 0 of 6, the survivor count (T/C endpoint: mean survival time, dose: 150.0 mg/kg/injection, schedule: Q01DX001 (ip), vehicle: saline) was 0 of 6 and the survivor count (T/C endpoint: mean survival time, dose: 300.0 mg/kg/injection, schedule: Q01DX001 (ip), vehicle: saline) was 0 of 6.

With `C=C(C)CNC1=C(C)C(=O)C2=C(C1=O)[C@@H](COC(N)=O)[C@]1(OC)[C@@H]3N[C@@H]3CN21` the T/C (T/C endpoint: mean survival time, dose: 24.0 mg/kg/injection, schedule: Q01DX001 (ip), vehicle: distilled water + Tween-80) was 140 % of control and the T/C (T/C endpoint: mean survival time, dose: 24.0 mg/kg/injection, schedule: Q01DX001 (ip), vehicle: water) was 126 % of control.

With `O=C(Nc1ccc(Oc2ccc(Cl)c(Cl)c2)c(Cl)c1)Nc1cc(Cl)c(Cl)cc1S(=O)(=O)O` the survivor count (T/C endpoint: mean survival time, dose: 200.0 mg/kg/injection, schedule: Q01DX009 (ip), vehicle: saline with Tween-80) was 4 of 6 and the survivor count (T/C endpoint: mean survival time, dose: 400.0 mg/kg/injection, schedule: Q01DX009 (ip), vehicle: saline with Tween-80) was 0 of 6.

`CC12COC(=O)C1(C)C1CCC2O1` (configuration not stated) was tested, and the survivor count (T/C endpoint: mean survival time, dose: 20.0 mg/kg/injection, schedule: Q01DX002 (ip), vehicle: saline with Tween-80) was 1 of 3, the survivor count (T/C endpoint: mean survival time, dose: 100.0 mg/kg/injection, schedule: Q04DX002 (ip), vehicle: saline with Tween-80) was 0 of 3 and the survivor count (T/C endpoint: mean survival time, dose: 200.0 mg/kg/injection, schedule: Q04DX002 (ip), vehicle: saline with Tween-80) was 0 of 3. The survivor count (T/C endpoint: mean survival time, dose: 400.0 mg/kg/injection, schedule: Q04DX002 (ip), vehicle: saline with Tween-80) was 0 of 3.

For `CCOC(=O)Nc1cc(NCCc2ccccc2)c(N)c(N)n1`, the survivor count (T/C endpoint: mean survival time, dose: 200.0 mg/kg/injection, schedule: Q01DX001 (ip), vehicle: saline) was 1 of 6 and the survivor count (T/C endpoint: mean survival time, dose: 400.0 mg/kg/injection, schedule: Q01DX001 (ip), vehicle: saline) was 0 of 6.

In the case of `[Cl][Hg][Cl]`, the survivor count (T/C endpoint: median survival time, dose: 6.25 mg/kg/injection, schedule: Q01DX009 (ip), vehicle: saline) is reported as 1 of 6.

In the case of `CCC(/C=C/C(C)C1CCC2C3CCC45CC4CCC5(C)C3CCC12C)C(C)C` (configuration not stated), the survivor count (T/C endpoint: mean survival time, dose: 200.0 mg/kg/injection, schedule: Q04DX003 (ip), vehicle: saline with Tween-80) is reported as 6 of 6.

For `CCC[CH2][Pb]([CH2]CCC)([CH2]CCC)[O]C(C)=O`, the survivor count (T/C endpoint: mean survival time, dose: 10.0 mg/kg/injection, schedule: Q01DX001 (ip), vehicle: other) was 0 of 6, the survivor count (T/C endpoint: mean survival time, dose: 20.0 mg/kg/injection, schedule: Q01DX001 (ip), vehicle: other) was 2 of 6 and the survivor count (T/C endpoint: mean survival time, dose: 40.0 mg/kg/injection, schedule: Q01DX001 (ip), vehicle: other) was 1 of 6. The survivor count (T/C endpoint: mean survival time, dose: 100.0 mg/kg/injection, schedule: Q04DX003 (ip), vehicle: saline with Tween-80) was 3 of 3.

`CCC(CO)[N-]CC[N-]C(CC)CO.[Cl][Pt+2][Cl]` (configuration not stated) was tested, and the survivor count (T/C endpoint: median survival time, dose: 100.0 mg/kg/injection, schedule: Q04DX003 (ip), vehicle: saline) was 4 of 6.

With `CCOC(=O)C(N)C[S][Sn]([CH3])([CH3])[Cl]` (configuration not stated) the survivor count [1] was 3 of 6 and the survivor count (T/C endpoint: median survival time, dose: 100.0 mg/kg/injection, schedule: Q01DX009 (ip), vehicle: saline) was 0 of 6.

In the case of `CCOC(=O)Nc1cc2c(c(N)n1)N=C(CCc1ccccc1)CN2`, the T/C (T/C endpoint: mean survival time, dose: 100.0 mg/kg/injection, schedule: Q01DX001 (ip), vehicle: Klucel (hydroxypropylcellulose) (HPC)) is reported as 129 % of control and the survivor count (T/C endpoint: mean survival time, dose: 400.0 mg/kg/injection, schedule: Q01DX001 (ip), vehicle: Klucel (hydroxypropylcellulose) (HPC)) is reported as 1 of 5.

In the case of `N#CSCCOCCSC#N`, the survivor count (T/C endpoint: mean survival time, dose: 10.0 mg/kg/injection, schedule: Q04DX003 (ip), vehicle: saline with Tween-80) is reported as 0 of 6.

`O=S(=O)(O)Sc1ncnc2nc[nH]c12` was tested, and the T/C (T/C endpoint: mean survival time, dose: 40.0 mg/kg/injection, schedule: Q01DX009 (ip), vehicle: saline) was 139 % of control, the T/C (T/C endpoint: mean survival time, dose: 80.0 mg/kg/injection, schedule: Q01DX009 (ip), vehicle: saline) was 146 % of control and the T/C (T/C endpoint: mean survival time, dose: 160.0 mg/kg/injection, schedule: Q01DX009 (ip), vehicle: saline) was 142 % of control. For the same molecule, the T/C (T/C endpoint: median survival time, dose: 25.0 mg/kg/injection, schedule: Q01DX009 (ip), vehicle: saline) was 134 % of control, the T/C [1] was 146 % of control and the T/C (T/C endpoint: median survival time, dose: 75.0 mg/kg/injection, schedule: Q04DX003 (ip), vehicle: saline) was 134 % of control. The T/C (T/C endpoint: median survival time, dose: 150.0 mg/kg/injection, schedule: Q04DX003 (ip), vehicle: saline) was 142 % of control, the survivor count (T/C endpoint: median survival time, dose: 400.0 mg/kg/injection, schedule: Q01DX009 (ip), vehicle: saline) was 2 of 6 and the survivor count (T/C endpoint: median survival time, dose: 600.0 mg/kg/injection, schedule: Q04DX003 (ip), vehicle: saline) was 1 of 6.

`CC(=O)OCCN1CC1` was tested, and the survivor count (T/C endpoint: mean survival time, dose: 50.0 mg/kg/injection, schedule: Q01DX009 (ip), vehicle: saline) was 0 of 6 and the survivor count (T/C endpoint: mean survival time, dose: 100.0 mg/kg/injection, schedule: Q01DX009 (ip), vehicle: saline) was 0 of 6.

Source: PubChem BioAssay AID256 (DTP/NCI, 2004)
